Chains of the proteins cited; added tags and fusions are not shown. Lines headed by an entry give the natural chain unless they say otherwise; changes in a name come on top.
UniProt P10605: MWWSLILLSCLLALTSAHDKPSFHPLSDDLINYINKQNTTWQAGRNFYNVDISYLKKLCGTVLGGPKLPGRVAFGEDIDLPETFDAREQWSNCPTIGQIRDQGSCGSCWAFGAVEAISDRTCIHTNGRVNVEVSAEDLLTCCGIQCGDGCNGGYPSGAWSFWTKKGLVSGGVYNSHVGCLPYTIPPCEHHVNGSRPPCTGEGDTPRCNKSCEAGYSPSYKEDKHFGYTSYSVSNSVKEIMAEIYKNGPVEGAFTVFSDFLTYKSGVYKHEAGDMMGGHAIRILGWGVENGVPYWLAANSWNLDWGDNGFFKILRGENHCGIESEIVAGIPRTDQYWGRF

In article PMC11601937:

Target: T1, stimulator of IFN genes (STING) (mouse (endogenous in BMDCs)) (UniProt Q3TBT3)
T1 sequence: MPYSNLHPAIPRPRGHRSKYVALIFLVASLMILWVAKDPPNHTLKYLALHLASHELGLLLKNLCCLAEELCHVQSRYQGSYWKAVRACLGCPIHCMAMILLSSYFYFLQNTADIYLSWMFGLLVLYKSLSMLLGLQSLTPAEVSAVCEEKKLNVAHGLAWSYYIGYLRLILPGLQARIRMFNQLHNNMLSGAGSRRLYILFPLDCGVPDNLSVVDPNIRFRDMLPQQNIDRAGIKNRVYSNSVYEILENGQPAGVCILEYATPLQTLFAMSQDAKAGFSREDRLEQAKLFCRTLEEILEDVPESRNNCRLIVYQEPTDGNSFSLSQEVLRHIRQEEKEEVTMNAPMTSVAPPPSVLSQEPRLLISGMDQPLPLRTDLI
Experiment: co-IP; anti-STING antibody on Dynabeads Protein G; lysates of WT mouse BMDCs stimulated with 2'3'-cGAMP, incubated 2 hours at room temperature; eluate detected by Western blotting

binding: binds
Substance: cathepsin B (from UniProt P10605) (enzyme)

Results are given in words; binding and its absence hold for the method and conditions named. In cells and extracts the contact can be indirect. A result given as binding can be weak or reduced; the word gives no strength.
